In all, about 390,000 compounds went through this assay and about 910 (0.23%) were called active. Inconclusive results, whose numbers are uncertain, are shown with a selection of clear calls. Calls come from the whole dose curve; as a rule, active = well fitted inhibition curve with a large enough effect; inconclusive = small, poorly fitted or top-dose-only effect; inactive = no such curve, though single readings can be large or run the other way. A potency beside an inconclusive call is a rough fit, not a confirmed value.
Biological target: Ubiquitin carboxyl-terminal hydrolase 1 (Homo sapiens) (UniProt O94782)
Test: Inhibitors of USP1/UAF1: Primary Screen; note: nearly all actives have a fitted effect of over 60% in size
Settings: recombinant USP1/UAF1, Ub-Rhodamine cleavage fluorescence; activity change, negative = inhibition: at 57.1 µM (top of the series)
How it was run: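 High-throughput fluorogenic screen: 1nM USP1/UAF1 complex, Ub-Rho substrate 150nM final, 50mM HEPES pH 7.8 with 0.5mM EDTA, 0.1 mg/ml BSA, 1mM TCEP and 0.01% Tween-20.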
% is set by controls: 0 for no effect and ±100 for the full control effect; potency is the fitted concentration of half-maximal effect.

By UniProt entry, the sequences of proteins in these tests, tags left out. Where a name states a change or a piece, a line headed by the entry shows the natural chain unless it says otherwise.
UniProt O94782: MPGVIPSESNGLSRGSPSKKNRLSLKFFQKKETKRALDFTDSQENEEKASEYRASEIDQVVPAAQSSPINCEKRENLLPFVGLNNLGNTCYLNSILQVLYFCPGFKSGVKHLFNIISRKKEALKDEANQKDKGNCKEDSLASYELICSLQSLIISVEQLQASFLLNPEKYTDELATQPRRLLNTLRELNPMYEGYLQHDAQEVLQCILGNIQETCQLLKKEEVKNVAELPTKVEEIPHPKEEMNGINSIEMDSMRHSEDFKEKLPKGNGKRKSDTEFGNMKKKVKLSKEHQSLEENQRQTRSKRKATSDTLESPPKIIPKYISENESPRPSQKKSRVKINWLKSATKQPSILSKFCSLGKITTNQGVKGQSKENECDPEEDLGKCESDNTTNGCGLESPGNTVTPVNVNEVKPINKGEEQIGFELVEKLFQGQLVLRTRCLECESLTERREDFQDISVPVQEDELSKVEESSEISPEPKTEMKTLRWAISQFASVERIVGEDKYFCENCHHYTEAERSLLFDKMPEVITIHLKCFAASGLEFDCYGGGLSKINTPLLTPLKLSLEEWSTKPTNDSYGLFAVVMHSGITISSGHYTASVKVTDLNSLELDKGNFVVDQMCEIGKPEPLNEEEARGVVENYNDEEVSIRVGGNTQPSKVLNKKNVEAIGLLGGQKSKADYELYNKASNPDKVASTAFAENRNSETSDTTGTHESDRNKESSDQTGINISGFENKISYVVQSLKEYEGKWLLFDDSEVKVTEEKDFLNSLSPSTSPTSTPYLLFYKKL

Potency, inconclusive:
CCN1CCN(C(=O)C(NS(=O)(=O)c2ccc3nc(C)sc3c2)C(C)C)CC1 (stereo not given) 0.562 µM [inhibitor, full curve, poor fit], Cc1cc(Cl)cc2c(N=Nc3ccccc3C(=O)O)c(O)[nH]c12 6.31 µM [inhibitor, full curve, poor fit], O=C(CSc1nc(-c2ccc(F)cc2)[nH]c1-c1ccccc1)Nc1ccccc1 3.55 µM [inhibitor, partial curve], CCCC#Cc1ccc2c(c1)COc1c3ccccc3nn1-2 6.31 µM [inhibitor, partial curve], O=C(N/N=C/c1sc2ccccc2c1O)c1cccc2ccccc12 31.6 µM [inhibitor, single point], Cn1c(COc2cccc3ccccc23)nnc1SCC(=O)OC1CCCCC1 35.5 µM [inhibitor, partial curve], CC1CN(S(=O)(=O)c2ccc(F)cc2)CN1C(=O)N1CCOCC1 (stereo not given) 11.2 µM [inhibitor, full curve, poor fit], CSc1ccc(CN(C)C(=O)C(c2ccccc2)c2ccccc2)cc1 44.7 µM [inhibitor, partial curve, poor fit], CC(=O)c1ccc(Cc2ccccc2)cc1 8.91 µM [inhibitor, partial curve, poor fit], COc1cc(NC(=O)c2nc3ccccc3nc2N2CCCCC2)cc(OC)c1OC 44.7 µM [inhibitor, partial curve, poor fit], COC(=O)c1c(-c2cccs2)csc1NC(=O)c1ccc(OC)c(OC)c1 100 µM [inhibitor, partial curve, poor fit], Cc1cc(C)n(-c2nc3cc(Cl)ccc3nc2Nc2ccc(CC(=O)O)cc2)n1 39.8 µM [inhibitor, partial curve, poor fit], CN1C(=O)/C(=C/C=C2\SCCN2C)OC1=S 3.55 µM [inhibitor, partial curve], CCN(CC)CC#CCC1(O)c2ccccc2-c2ccccc21 35.5 µM [inhibitor, single point], COc1ccc(CCNc2oc(-c3cccc4ccccc34)nc2P(=O)(OC)OC)cc1OC 44.7 µM [inhibitor, partial curve], CCn1cc(C(=O)NCc2ccc(C)cc2)c(=O)c2cc(S(=O)(=O)N(C)C3CCCCC3)ccc21 3.55 µM [inhibitor, full curve], O=C(NCC1CCCO1)/C(=C\c1ccccc1F)NC(=O)c1ccccc1 (stereo not given) 50.1 µM [inhibitor, partial curve, poor fit], O=C(CSc1n[nH]c(-c2ccccc2)n1)Nc1ncccn1 0.631 µM [inhibitor, full curve, poor fit], CCN1/C(=C/c2ccc3ccccc3[n+]2CC)C=Cc2ccccc21 28.2 µM [inhibitor, partial curve], COc1ccc(C(=O)c2c(N)sc3c2CCN(C(=O)OC(C)(C)C)C3)cc1 39.8 µM [inhibitor, partial curve, poor fit], Cc1ccc(C)n1-c1ccc(C#N)cn1 7.08 µM [inhibitor, single point], COc1ccc(N2CCN(S(=O)(=O)CCNC(=O)COc3ccccc3F)CC2)cc1 0.251 µM [inhibitor, full curve, poor fit], Cc1cc(=O)[nH]c(Nc2ccc(Cl)cc2)n1 2.51 µM [inhibitor, full curve, poor fit], COC(=O)c1cccc(NC(=O)c2nsc3ccccc23)c1 0.794 µM [inhibitor, full curve], COc1ccc(S(=O)(=O)n2nc(-c3ccc(Cl)cc3)cc2N)cc1 50.1 µM [inhibitor, partial curve, poor fit], Nc1c(-c2n[nH]c(=S)n2-c2ccc(Cl)cc2Cl)cnn1-c1ccccc1 35.5 µM [inhibitor, single point], C/C(=N\N=C(c1ccccc1)c1ccccc1)c1cccs1 14.1 µM [inhibitor, partial curve], Cc1c(OCc2ccc(C(=O)O)cc2)ccc2c(-c3ccccc3)cc(=O)oc12 39.8 µM [inhibitor, partial curve], CCOC(=O)CSc1nc(-c2ccc(Cl)cc2)cc(C(F)(F)F)c1C#N 5.62 µM [inhibitor, full curve], O=C(NC1CCS(=O)(=O)C1)c1cccs1 (stereo not given) 50.1 µM [inhibitor, partial curve, poor fit], O=C(CN1CCC(NC(=O)c2ccco2)CC1)Nc1ccccc1C(F)(F)F 44.7 µM [inhibitor, single point], CC(C)N(Cc1ccccc1)C(=O)c1nc(-c2ccc(Cl)cc2)n2c1CCCCC2 10 µM [inhibitor, partial curve, poor fit], CCOc1ccc(-n2c(C)cc(/C=C3/C(=N)N4C(=NC3=O)SN=C4S(C)(=O)=O)c2C)cc1 44.7 µM [inhibitor, partial curve, poor fit], CC(C)c1nc2ccccc2n1CCC(=O)O 0.251 µM [inhibitor, full curve, poor fit], CCCNc1c(F)c(F)c2c(C)c3ccccc3nc2c1F 25.1 µM [inhibitor, partial curve], O=c1cc(-c2ccc(C3CCCCC3)cc2)[nH][nH]1 39.8 µM [inhibitor, partial curve, poor fit], CCN(CC)Cc1c(C(=O)N/N=C/c2c(Cl)cccc2Cl)nnn1-c1nonc1N 39.8 µM [inhibitor, partial curve], COc1ccc(S(=O)(=O)Oc2ccc3cccc(N)c3c2)cc1 28.2 µM [inhibitor, partial curve], CCN(CC(=O)Nc1ccc(NC(C)=O)cc1)C(=O)c1ccc(N2CCCC2)c([N+](=O)[O-])c1 50.1 µM [inhibitor, partial curve], Cc1ccc(N(C)S(=O)(=O)c2c(C)[nH]c(C)c2C(=O)N2CCCC2)cc1 79.4 µM [inhibitor, partial curve, poor fit], COc1ccc(CNC(=O)[C@H](C)N2C(=O)N3CCc4c([nH]c5ccc(OC)cc45)[C@@]3(C)C2=O)cc1 14.1 µM [inhibitor, partial curve, poor fit], O=C(NCCc1ccc(Cl)cc1)C1CCN(Cc2cc3ccccc3n2Cc2ccccc2)CC1 3.55 µM [inhibitor, partial curve], CN1CCN(c2ccc(NC(=O)c3ccc(C(F)(F)F)cc3)cn2)CC1 39.8 µM [inhibitor, single point], Cc1nn(-c2ccc(F)cc2)c2nc(N)c(C#N)c(-c3cccs3)c12 44.7 µM [inhibitor, partial curve, poor fit], CCC(C)NC(=O)c1cc(Sc2cccc(Cl)c2)nc2ccccc12 (stereo not given) 0.398 µM [inhibitor, full curve, poor fit], FC(F)(F)c1cccc(N2CCN(c3ncnc4c3nc3n4CCCC3)CC2)c1 35.5 µM [inhibitor, partial curve], COc1ccc2ccccc2c1C1CC(=O)N2CN(Cc3ccco3)CSC2=C1C#N (stereo not given) 3.98 µM [inhibitor, full curve], Cc1ccccc1NC(=O)C(=O)NCC(c1ccc2c(c1)OCO2)N1CCN(c2ccccc2)CC1 (stereo not given) 0.251 µM [inhibitor, full curve, poor fit]

Activity change, negative = inhibition, inactive:
Cc1c(Cl)cccc1-n1ncc(C(=O)NCc2cccs2)c1C1CCN(C(=O)OC(C)(C)C)CC1 -19.3%, O=[N+]([O-])c1cccnc1S(=O)(=O)c1ccccc1 -19.6%, Cc1cc(=O)n(Cc2cccc(F)c2)c2c1c(C)nn2-c1cccc(F)c1 10.6%, CC(C)=NNc1cc([N+](=O)[O-])cc2c1C(=O)N(C)S2=O (stereo not given) -25.2%, CCOC(=O)N1CCN(CC(O)COc2ccccc2C(C)(C)C)CC1 (stereo not given) -14.7%, Cc1oc(-c2cccs2)nc1CS(=O)CC(=O)NC1CCCCCC1 (stereo not given) -16.1%, S=C(Nc1cccc(Cl)c1Cl)Nn1cnnc1 -5.74%, Clc1ccc(SCc2cn3ccccc3n2)cc1 -24.9%, CC1(C)CN(c2ccc(Br)cc2Br)C1=O -5.39%, Cc1ccccc1NC(=S)NCCc1ccc(S(N)(=O)=O)cc1 -23.4%, Nc1c(C(=O)Nc2ccccc2Br)sc2nc(-c3cccs3)ccc12 -11.5%, O=C(CCN1CCCCC1)Nc1cccc(Cl)c1 -16.8%, O=C1CSC(c2ccccn2)N1c1ccc(Cl)c(Cl)c1 (stereo not given) -2.8%, Cc1ccccc1C1C(C#N)=C(N)N(N(C)C)C2=C1C(=O)CC(C)(C)C2 (stereo not given) -22.5%, O=C(Cn1nc(C(F)(F)F)c2c1CCCC2)Nc1cccc(Cl)c1 -13.7%, CCN1CCN(Cc2c(O)ccc3oc(C)c(C(=O)Nc4cccc(Cl)c4C)c23)CC1 -17%, COc1ccc(CNC(=O)Cn2c(=O)oc3cc(S(=O)(=O)NCc4ccccc4)ccc32)cc1 1.51%

— PubChem BioAssay AID743255 (National Center for Advancing Translational Sciences (NCATS), 2014)
